Measurements taken from PMC3037912.
No constants are given. Whether binding was seen depends on the method and setting. In cells and extracts the contact can be indirect. For some assays here: Binding can be weak; no strength is given. For some assays here: Where a sequence is shown, tags or fusion partners need not be part of it.

T1: GST-annexin A6 fusion protein, full length (UniProt P48037)
T1 sequence: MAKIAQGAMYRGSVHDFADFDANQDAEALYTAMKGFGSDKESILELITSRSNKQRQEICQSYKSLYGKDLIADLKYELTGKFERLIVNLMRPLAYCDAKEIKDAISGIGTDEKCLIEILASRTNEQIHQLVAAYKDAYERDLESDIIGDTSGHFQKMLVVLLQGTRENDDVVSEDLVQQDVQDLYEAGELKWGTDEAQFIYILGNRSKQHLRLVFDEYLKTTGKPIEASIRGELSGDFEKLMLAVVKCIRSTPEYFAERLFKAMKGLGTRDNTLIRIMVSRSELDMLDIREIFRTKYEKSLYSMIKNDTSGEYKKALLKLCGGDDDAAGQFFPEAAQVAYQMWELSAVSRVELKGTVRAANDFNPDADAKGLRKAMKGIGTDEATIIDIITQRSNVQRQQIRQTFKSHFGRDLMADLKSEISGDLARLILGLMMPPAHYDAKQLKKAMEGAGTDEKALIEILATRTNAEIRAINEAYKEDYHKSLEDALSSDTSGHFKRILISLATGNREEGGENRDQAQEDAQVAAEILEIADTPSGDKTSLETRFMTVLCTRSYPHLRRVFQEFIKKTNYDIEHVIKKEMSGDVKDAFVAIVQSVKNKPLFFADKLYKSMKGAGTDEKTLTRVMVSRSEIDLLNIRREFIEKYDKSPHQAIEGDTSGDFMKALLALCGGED

T2: GST-AnxA6 ΔC1 (UniProt P48037)
T2 sequence: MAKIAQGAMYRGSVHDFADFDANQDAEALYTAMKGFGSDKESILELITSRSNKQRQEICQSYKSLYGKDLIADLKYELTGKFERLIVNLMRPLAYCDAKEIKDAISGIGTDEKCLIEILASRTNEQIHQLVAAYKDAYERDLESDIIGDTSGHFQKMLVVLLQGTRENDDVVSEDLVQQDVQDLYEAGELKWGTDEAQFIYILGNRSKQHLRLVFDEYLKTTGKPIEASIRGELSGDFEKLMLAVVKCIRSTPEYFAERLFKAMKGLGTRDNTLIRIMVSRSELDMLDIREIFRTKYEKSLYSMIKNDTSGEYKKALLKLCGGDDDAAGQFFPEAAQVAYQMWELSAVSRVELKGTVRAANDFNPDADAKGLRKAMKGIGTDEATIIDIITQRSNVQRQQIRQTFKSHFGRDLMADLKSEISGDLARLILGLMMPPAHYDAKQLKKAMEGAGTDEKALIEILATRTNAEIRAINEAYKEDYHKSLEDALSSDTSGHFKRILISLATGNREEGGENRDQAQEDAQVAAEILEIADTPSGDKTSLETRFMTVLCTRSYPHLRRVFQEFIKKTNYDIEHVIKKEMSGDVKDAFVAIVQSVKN

T3: GST-AnxA6 ΔC3 (UniProt P48037)
T3 sequence: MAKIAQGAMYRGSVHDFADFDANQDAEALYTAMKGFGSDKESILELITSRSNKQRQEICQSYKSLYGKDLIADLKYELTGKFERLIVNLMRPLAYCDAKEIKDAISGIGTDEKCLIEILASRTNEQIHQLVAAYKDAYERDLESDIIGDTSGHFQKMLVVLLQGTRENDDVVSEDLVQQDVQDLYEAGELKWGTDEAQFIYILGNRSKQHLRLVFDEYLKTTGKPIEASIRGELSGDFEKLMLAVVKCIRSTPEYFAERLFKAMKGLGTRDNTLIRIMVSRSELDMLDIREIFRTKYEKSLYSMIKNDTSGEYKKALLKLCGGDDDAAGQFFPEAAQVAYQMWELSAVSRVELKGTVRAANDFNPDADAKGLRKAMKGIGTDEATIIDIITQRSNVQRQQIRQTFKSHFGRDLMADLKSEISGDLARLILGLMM

T4: GST-AnxA6 ΔN1 (UniProt P48037)
T4 sequence: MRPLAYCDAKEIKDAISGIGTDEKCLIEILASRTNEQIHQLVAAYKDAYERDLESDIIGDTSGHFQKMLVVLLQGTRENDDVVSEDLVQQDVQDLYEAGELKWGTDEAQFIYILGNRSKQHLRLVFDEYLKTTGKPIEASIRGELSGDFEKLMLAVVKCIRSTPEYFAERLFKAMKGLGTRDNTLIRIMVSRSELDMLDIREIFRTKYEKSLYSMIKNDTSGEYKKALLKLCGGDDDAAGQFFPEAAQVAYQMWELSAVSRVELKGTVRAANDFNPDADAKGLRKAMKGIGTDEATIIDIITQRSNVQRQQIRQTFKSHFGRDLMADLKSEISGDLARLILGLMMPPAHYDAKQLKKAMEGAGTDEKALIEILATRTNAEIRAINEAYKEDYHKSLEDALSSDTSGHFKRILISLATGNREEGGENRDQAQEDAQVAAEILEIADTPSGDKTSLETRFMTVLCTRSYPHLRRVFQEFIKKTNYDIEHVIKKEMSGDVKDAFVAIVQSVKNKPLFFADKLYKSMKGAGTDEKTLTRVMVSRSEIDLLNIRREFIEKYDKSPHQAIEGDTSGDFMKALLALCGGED

T5: GST-AnxA6 ΔN2 (UniProt P48037)
T5 sequence: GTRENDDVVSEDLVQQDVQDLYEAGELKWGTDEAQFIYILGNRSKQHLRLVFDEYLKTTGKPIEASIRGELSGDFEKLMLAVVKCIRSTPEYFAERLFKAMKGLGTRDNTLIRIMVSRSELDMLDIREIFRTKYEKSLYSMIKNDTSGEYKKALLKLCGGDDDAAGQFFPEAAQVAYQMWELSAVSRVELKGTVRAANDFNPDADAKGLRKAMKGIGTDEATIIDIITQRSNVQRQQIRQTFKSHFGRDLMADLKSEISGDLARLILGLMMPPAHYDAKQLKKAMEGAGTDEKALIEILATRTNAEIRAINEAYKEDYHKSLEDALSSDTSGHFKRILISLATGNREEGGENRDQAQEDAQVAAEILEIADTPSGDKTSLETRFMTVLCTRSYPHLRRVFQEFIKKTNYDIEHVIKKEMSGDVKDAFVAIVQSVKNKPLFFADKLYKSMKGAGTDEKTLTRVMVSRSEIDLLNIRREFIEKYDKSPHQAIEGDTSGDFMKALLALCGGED

T6: GST-AnxA6 ΔN3 (UniProt P48037)
T6 sequence: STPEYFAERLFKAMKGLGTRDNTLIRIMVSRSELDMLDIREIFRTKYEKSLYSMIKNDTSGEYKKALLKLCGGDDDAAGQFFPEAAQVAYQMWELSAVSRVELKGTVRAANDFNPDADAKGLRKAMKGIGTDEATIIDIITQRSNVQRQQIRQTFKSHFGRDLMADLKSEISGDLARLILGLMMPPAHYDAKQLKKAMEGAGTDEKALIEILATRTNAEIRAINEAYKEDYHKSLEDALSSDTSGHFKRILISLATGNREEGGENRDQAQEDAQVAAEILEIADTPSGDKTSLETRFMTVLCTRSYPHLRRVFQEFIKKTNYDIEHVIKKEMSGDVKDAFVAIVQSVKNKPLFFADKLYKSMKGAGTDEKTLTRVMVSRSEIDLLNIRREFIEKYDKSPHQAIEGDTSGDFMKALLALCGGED

B1: annexin A6, endogenous in rat heart (protein, UniProt P48037 1-673)
chain: T1 sequence

Tests used:
[1] = target: T1, GST-annexin A6 fusion protein, full length; test: pull-down; as the in vitro binding assay, but with delipidated (lipid depleted) whole heart homogenate; immunoblot with anti sarcomeric α-actinin antibody; only the target purified
GST-AnxA6 ΔC1 = target: T2, GST-AnxA6 ΔC1; test: pull-down; GST-AnxA6 or its deletion mutants on glutathione-sepharose incubated with solubilised rat whole heart homogenate (1.5 mg), 4°C, 5 hours; wash buffer 10 mM Tris pH 8.5, 0.01% NP-40, 5 mM EDTA, 2 mM DTT, 0.05% SDS; immunoblot with anti sarcomeric α-actinin antibody; only the target …
GST-AnxA6 ΔC3 = target: T3, GST-AnxA6 ΔC3; test: as above
GST-AnxA6 ΔN1 = target: T4, GST-AnxA6 ΔN1; test: as above
GST-AnxA6 ΔN2 = target: T5, GST-AnxA6 ΔN2; test: as above
GST-AnxA6 ΔN3 = target: T6, GST-AnxA6 ΔN3; test: as above
[2] = target: T1, GST-annexin A6 fusion protein, full length; test: as above
[3] = target: sarcomeric alpha-actinin (rat (endogenous in heart homogenate)); test: co-IP; rat whole heart homogenate immunoprecipitated with anti sarcomeric α-actinin antibody on Protein A agarose, overnight at 4°C; western blot with anti-AnxA6 antibody

Molecule	binding [1]	binding (GST-AnxA6 ΔC1)	binding (GST-AnxA6 ΔC3)	binding (GST-AnxA6 ΔN1)	binding (GST-AnxA6 ΔN2)	binding (GST-AnxA6 ΔN3)	binding [2]	binding [3]
sarcomeric alpha-actinin (rat (endogenous in heart homogenate))	binds	binds	binds	no binding	no binding	no binding	binds	
B1								binds
